For one substance, binding results are on record in PMC4694978.

The chains behind the UniProt entries cited, without tags or fusion partners.
UniProt O75679: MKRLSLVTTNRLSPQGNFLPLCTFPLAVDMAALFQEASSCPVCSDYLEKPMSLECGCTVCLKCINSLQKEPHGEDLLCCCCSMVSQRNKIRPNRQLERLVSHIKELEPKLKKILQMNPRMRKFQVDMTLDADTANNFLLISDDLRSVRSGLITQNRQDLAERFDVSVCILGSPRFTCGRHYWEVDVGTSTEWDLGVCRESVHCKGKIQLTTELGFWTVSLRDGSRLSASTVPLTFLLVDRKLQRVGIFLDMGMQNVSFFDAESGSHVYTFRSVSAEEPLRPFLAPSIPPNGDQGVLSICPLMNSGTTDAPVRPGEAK
UniProt Q92793: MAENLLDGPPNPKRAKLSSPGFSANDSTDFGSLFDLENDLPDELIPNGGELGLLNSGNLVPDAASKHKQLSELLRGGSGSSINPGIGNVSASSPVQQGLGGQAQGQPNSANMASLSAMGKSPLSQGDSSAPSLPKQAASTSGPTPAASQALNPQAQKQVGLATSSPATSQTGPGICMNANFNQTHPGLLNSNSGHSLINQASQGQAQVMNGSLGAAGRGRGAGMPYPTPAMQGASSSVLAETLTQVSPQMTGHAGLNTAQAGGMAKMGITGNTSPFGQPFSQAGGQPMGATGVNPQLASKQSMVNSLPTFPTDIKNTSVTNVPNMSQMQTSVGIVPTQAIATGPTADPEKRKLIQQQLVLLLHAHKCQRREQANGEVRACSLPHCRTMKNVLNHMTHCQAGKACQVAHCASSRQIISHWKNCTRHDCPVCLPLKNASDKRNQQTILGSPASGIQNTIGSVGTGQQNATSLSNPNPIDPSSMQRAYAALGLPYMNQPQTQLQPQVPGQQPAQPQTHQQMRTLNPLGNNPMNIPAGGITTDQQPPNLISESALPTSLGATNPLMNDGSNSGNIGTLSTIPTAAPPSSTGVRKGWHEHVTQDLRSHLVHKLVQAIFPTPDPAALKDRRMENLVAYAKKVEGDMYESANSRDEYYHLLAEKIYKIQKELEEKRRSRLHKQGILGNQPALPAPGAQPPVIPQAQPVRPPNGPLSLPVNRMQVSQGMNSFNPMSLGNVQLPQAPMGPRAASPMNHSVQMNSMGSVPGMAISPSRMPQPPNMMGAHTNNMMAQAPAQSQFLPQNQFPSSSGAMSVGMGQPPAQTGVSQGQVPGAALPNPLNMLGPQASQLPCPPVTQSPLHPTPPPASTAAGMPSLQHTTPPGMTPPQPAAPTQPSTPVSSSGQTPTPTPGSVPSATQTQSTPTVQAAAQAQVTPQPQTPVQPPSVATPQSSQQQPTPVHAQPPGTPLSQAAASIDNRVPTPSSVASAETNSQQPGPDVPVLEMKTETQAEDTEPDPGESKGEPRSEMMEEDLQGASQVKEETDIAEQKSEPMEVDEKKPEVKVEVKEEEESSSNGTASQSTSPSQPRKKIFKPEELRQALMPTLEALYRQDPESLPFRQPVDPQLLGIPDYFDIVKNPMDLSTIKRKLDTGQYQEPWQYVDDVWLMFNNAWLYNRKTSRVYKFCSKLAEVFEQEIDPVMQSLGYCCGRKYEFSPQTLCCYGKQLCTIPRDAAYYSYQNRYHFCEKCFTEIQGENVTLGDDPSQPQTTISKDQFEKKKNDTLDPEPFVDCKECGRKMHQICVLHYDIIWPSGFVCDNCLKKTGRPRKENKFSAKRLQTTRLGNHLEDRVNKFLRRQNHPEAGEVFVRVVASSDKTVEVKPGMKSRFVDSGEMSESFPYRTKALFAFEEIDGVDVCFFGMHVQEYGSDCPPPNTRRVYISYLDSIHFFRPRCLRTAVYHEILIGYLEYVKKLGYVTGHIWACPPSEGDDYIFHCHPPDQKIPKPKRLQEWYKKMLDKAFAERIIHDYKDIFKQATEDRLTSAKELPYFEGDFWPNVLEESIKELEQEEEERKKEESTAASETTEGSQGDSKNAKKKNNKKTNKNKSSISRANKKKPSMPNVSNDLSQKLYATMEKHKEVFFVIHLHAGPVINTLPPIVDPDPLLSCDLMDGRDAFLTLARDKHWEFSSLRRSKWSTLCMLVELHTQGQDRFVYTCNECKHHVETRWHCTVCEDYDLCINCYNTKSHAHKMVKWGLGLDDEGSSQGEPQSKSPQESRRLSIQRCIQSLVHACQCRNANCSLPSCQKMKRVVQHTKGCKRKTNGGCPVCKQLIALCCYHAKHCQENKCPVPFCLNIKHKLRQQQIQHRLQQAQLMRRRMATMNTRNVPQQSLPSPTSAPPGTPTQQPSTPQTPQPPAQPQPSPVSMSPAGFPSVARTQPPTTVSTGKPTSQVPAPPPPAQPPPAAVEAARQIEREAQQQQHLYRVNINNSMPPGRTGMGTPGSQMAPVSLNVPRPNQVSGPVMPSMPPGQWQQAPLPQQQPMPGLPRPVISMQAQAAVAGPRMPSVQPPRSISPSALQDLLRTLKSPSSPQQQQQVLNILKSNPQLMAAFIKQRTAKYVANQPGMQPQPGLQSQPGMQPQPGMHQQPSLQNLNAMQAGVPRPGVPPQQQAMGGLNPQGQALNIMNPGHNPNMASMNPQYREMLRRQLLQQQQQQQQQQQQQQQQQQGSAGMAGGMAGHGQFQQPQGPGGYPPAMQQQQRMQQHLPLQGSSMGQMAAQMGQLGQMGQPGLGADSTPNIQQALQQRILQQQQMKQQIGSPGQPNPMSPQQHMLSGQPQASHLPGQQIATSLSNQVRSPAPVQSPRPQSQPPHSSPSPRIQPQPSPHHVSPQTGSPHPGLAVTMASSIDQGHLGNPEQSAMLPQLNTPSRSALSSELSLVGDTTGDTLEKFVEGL

Results are given in words; binding and its absence hold for the method and conditions named. In cells and extracts the contact can be indirect. Some results given as binding are weak or reduced against the parent protein; the word gives no strength.

The test deals with RFPL3 (human (endogenous in H1299, H460, H322, A549)) (UniProt O75679). The test can be described thus: co-IP; nuclear extracts of lung cancer cell lines incubated with rabbit polyclonal anti-RFPL3 antibody or non-immune rabbit IgG overnight at 4°C, protein-A/G agarose beads, washed with ice-cold PBS; immunoblot for CBP.

In the case of “CREB binding protein (CBP) (from UniProt Q92793 1-2442)”, the binding result is listed as “binds”.
